This passage reports cell number change and AC50 results from PubChem BioAssay AID2685 (National Center for Advancing Translational Sciences (NCATS), 2010).

Structures are written as SMILES. Some of the results follow. The main result of the screen is listed elsewhere. These columns were measured beside it and carry no call. Compounds called inactive in the main read-out are mostly missing here. Potencies come from curve fits of mixed quality, noted in brackets.

This test can be described thus: qHTS Assay for Lipid Storage Modulators in Drosophila S3 Cells.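 For cell number change: cells counted by Cell Tracker Red CMTPX staining in the red channel.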 As to conditions: BODIPY lipid droplet fluorescence, 18-24 h. The text has this:
NIH Molecular Libraries Probe Production Centers Network [MLPCN] NIH Chemical Genomics Center [NCGC] MLPCN Grant: 1 R03 MH085686-01 Assay Submitter (PI): Beller, Mathias; Max-Planck-Institut fur Biophysikalische Chemie NCGC Assay Overview: Storing lipids as a reservoir for energy or the anabolism of elementary metabolites is a common feature of probably all cells and is conserved from bacteria to humans. The universal cellular lipid storage organelle is the so-called lipid storage droplet (LD). Although ubiquitous, LDs share a simple structure composed of a hydrophobic core that harbors the storage lipids, which is shielded by a droplet-specific phospholipid monolayer to which proteins are attached. The current model of LD biogenesis involves an incorporation of the lipid core into the membrane leaflets of the endoplasmic reticulum (ER) followed by a subsequent budding-like maturation of a LD, which ultimately pinches off. Once released, LD volume can increase by localized lipogenesis or fusion of existing droplet. Storage lipids are re-mobilized enzymatically by lipase activity. Lipase regulation in the adipocyte is heavily studied and involves multiple components including catecholamine signaling, the LD-associated proteins Perilipin and comparative gene identification (CGI-58) and at least two lipases named hormone sensitive lipase (HSL) and adipocyte triglyceride lipase (ATGL). LD regulation outside of the adipocyte is poorly understood and only few components are known. […]
Triacsin C (Sigma-Aldrich T-4540), an inhibitor of long-chain fatty acyl CoA synthetase that blocks synthesis of triglycerides, was used as a positive control for lipid under-storage. […] Fluorescence was detected by excitation of the fluorophores with a 488-nm laser on an Acumen Explorer (TTP Lab Tech). […] Cells were detected using channel 3 (575-640 nm) with 5-um width and 100-um depth filters. The ratio of the number of objects in PMT channel 2 over the number of objects in PMT channel 3 was also calculated. […]
For orientation: Quantitative high-throughput screening tests each substance at several concentrations.

Turning to `CCOc1cc(/C=C2/C(=N)N3C(=NC2=O)SN=C3S(C)(=O)=O)ccc1OS(=O)(=O)c1ccccc1`, where the note is “measured here: cell count max response, cells fed with added oleic acid”, the cell number change was -30.2%. Moreover, the AC50 is 29.1 µM [falling, single point] (measured here: cell number channel AC50, cells fed with added oleic acid) and 6.51 µM [falling, single point] (measured here: lipid fluorescence (Fed channel) AC50, cells fed with added oleic acid).

For orientation: AC50 means the concentration at which the activity in the assay is half-maximal.
